LdMetRS: 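Primary screen of methionyl-tRNA synthetase; the read-out is not stated. Target: Methionyl-tRNA synthetase (putative), Leishmania donovani (UniProt E9BF75). The test concentration is not given. Values are per cent inhibition. Of about 68,000 compounds tested this way, about 24 (0.035%) reached 50% or more in at least one test.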
Mtb heat-shock: 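Assay on Mycobacterium tuberculosis, filed only as a heat shock assay from Cornell; the read-out is not stated. The concentration is filed as 10 mM, unlikely as a test dose, so the dose is not known. Direction is inferred from retests: higher values go with stronger inhibition. Size under these conditions: about 69,000 compounds, about 930 of them at 50% or above in at least one test.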

Sequences of proteins named here, by UniProt entry; tags and fusion partners are left off.
UniProt E9BF75, entry or part of it: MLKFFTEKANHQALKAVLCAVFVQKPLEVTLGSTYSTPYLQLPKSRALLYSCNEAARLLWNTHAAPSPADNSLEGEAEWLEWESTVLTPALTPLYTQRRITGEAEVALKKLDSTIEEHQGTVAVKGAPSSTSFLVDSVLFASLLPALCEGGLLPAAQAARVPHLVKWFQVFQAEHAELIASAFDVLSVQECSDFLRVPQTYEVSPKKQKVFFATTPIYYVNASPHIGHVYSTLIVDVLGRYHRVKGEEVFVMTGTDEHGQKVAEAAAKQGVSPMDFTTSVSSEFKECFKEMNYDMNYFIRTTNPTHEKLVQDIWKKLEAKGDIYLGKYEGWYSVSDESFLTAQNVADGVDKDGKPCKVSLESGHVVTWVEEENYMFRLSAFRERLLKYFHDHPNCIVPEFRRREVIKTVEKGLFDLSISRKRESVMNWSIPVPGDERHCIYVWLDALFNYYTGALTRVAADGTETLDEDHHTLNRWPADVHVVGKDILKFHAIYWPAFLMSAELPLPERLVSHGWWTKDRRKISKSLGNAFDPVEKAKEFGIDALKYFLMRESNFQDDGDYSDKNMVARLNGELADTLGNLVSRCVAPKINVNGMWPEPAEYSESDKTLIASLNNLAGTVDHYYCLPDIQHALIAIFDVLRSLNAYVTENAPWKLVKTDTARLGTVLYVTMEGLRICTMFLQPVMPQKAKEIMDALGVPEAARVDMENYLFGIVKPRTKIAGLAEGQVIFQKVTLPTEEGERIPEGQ

Results are percentages, as filed. How 0% and 100% were set is not recorded. Most values in the screen are low, and negative values occur. This is an unselected part of the compounds tested.

With Cc1cccc(COC2COC3(CCN(Cc4ccoc4)CC3)C2)n1 (stereo not drawn) the screen gave LdMetRS: 17%; Mtb heat-shock: -29.26%.
With CCN1CCN(CCNc2nc3ccc(C)cc3c(=O)n2C)CC1 the screen gave LdMetRS: 1.804%; Mtb heat-shock: -38.59%.
With COCCN1CCC(NC(=O)C(C)C)CC1 the screen gave LdMetRS: 9.22%; Mtb heat-shock: 9.035%.
With CC(NC(=O)NCC1(c2ccc(F)cc2)CC1)c1nncn1C (stereo not drawn) the screen gave LdMetRS: -0.2793%; Mtb heat-shock: -13.18%.
With CCn1c(C)cc(C(=O)N2CCCC(n3nc(C)nc3C)C2)c1C (stereo not drawn) the screen gave LdMetRS: 7.362%; Mtb heat-shock: 5.788%.
With Cn1ncc2c1CN(Cc1cccnc1)CC2COCC1CC1.O=C(O)C(F)(F)F.O=C(O)C(F)(F)F.O=C(O)C(F)(F)F (stereo not drawn) the screen gave Mtb heat-shock: -6.244%.
With O=C(Cn1nc(Br)nc1Br)N1CCCC1 the screen gave LdMetRS: 10.53%; Mtb heat-shock: 9.08%.
With Cc1ccc(CNC(=O)CN(C)CC2CCN(CCO)CC2)s1 the screen gave LdMetRS: 8.333%; Mtb heat-shock: 10.33%.
With Cn1cc(C(=O)NCC(Cc2cccc(F)c2)N2CCCCC2=O)nn1 (stereo not drawn) the screen gave LdMetRS: 12.93%; Mtb heat-shock: 5.143%.
With c1cnn(-c2ccc(CCNC3CCN(C4CC4)C3)cc2)c1 (stereo not drawn) the screen gave LdMetRS: 13.6%; Mtb heat-shock: -8.925%.
With CN1CCOC(CNC(=O)CCCOc2ccccc2F)C1 (stereo not drawn) the screen gave LdMetRS: 5.521%; Mtb heat-shock: 16.31%.
With COc1ncnc2c1CCN(Cc1cccs1)CC2 the screen gave LdMetRS: 4.235%.
With Fc1ccc(CNCC2Cn3nncc3CO2)cc1.O=C(O)C(F)(F)F (stereo not drawn) the screen gave Mtb heat-shock: -16.83%.
With Cc1ccc(-c2ccccc2CC2CNCCNC2=O)c(C)c1 (stereo not drawn) the screen gave LdMetRS: -72.09%.
With Cc1cc2ccccc2n1CCC(=O)NCc1ncc[nH]1 the screen gave LdMetRS: 9.247%; Mtb heat-shock: -2.724%.
With COC(=O)CN(Cc1ccccc1C)C(=O)CCCNC(=O)C1CC1 the screen gave LdMetRS: -6.354%; Mtb heat-shock: -35.12%.
With CC(C)Nc1ncnc2c1CCN(C(=O)[C@H]1CCCO1)CC2 the screen gave LdMetRS: 7.372%; Mtb heat-shock: -13.05%.
With COc1nn(C)cc1C(=O)NCC1(O)CCc2ccccc2C1 (stereo not drawn) the screen gave LdMetRS: 17.75%; Mtb heat-shock: 5.271%.
With COc1ccc(C(=O)NCCCC2(C3OCCO3)CCOCC2)cc1 the screen gave LdMetRS: 14.49%; Mtb heat-shock: 18.16%.
With O=C(O)C(F)(F)F.O=C1Nc2ccccc2C12CCN(Cc1nccs1)CC2 the screen gave Mtb heat-shock: -4.616%.
With Cc1cnn(CC2CCCCN2CC(=O)NCc2ccccn2)c1 (stereo not drawn) the screen gave LdMetRS: 7.746%; Mtb heat-shock: 11.65%.
With CCN(Cc1noc(C)n1)C(=O)CCn1c(C)cc2ccccc21 the screen gave LdMetRS: 26.32%; Mtb heat-shock: 72.72%.
With Cl.O=C([C@H]1CCCO1)N1CCC2(CC1)CNCc1ccccc12 the screen gave Mtb heat-shock: -7.838%.
With CCOCC(=O)Nc1ncc(I)cc1C the screen gave LdMetRS: 10.31%; Mtb heat-shock: -13.15%.
With CCC1CN(C(=O)NCc2cccnc2-n2cccn2)CCO1 (stereo not drawn) the screen gave LdMetRS: 13.58%; Mtb heat-shock: -22.55%.
With CCc1ccc(S(=O)(=O)Nc2ccn(CC(=O)OC)n2)cc1 the screen gave LdMetRS: 6.859%; Mtb heat-shock: -9.383%.
With Cc1nc[nH]c1CN1CCN(C2CCOCC2)CC(C(N)=O)C1 (stereo not drawn) the screen gave LdMetRS: 16.18%; Mtb heat-shock: -6.885%.
With Cn1cc(C(C)(O)CNc2ccc(C(F)(F)F)cn2)cn1 (stereo not drawn) the screen gave LdMetRS: 12.56%; Mtb heat-shock: 1.645%.
With CN(C)CCN1CC(C(=O)NCc2cccc(-n3cccn3)c2)CC1=O (stereo not drawn) the screen gave LdMetRS: -103.3%; Mtb heat-shock: -5.455%.
With COCCCN(Cc1cnc(N2CCCC2)nc1)C1CCN(C)CC1 the screen gave LdMetRS: 17.49%; Mtb heat-shock: 9.57%.
With O=C(O)C(F)(F)F.O=C(O)C(F)(F)F.O=C(O)C(F)(F)F.[H][C@@]12CN(Cc3cccnc3)C[C@]1([H])[C@@H](OC)CCN2Cc1cnn(C)c1 the screen gave Mtb heat-shock: -7.569%.
With CCc1csc(C2CCCN(C(=O)c3ccccn3)C2)n1 (stereo not drawn) the screen gave LdMetRS: 11.68%; Mtb heat-shock: -8.461%.
With Cn1cc(C(=O)NCC2CCN(C(=O)NC3CCCCC3)CC2)cn1 the screen gave LdMetRS: 17.66%; Mtb heat-shock: -8.284%.
With Cc1cc(CN2CCc3c(CNc4ncccn4)cncc3C2)oc1C.Cl.Cl the screen gave Mtb heat-shock: -24.37%.
With Cn1ccnc1-c1ccc(NCC2COCCO2)nn1 (stereo not drawn) the screen gave LdMetRS: 8.163%; Mtb heat-shock: -1.146%.
With O=C1CC[C@@H](CN(Cc2ccncc2)Cc2nc(-c3cccs3)no2)N1 the screen gave LdMetRS: 10.23%; Mtb heat-shock: 16.46%.
With CC(C)c1nc(N2CC[C@@H](N(C)CCc3ccccn3)[C@H](O)C2)no1 the screen gave LdMetRS: 6.72%; Mtb heat-shock: -10.14%.
With O=C1CN(C(=O)OCc2ccccc2)CC(O)CN1Cc1ccco1 (stereo not drawn) the screen gave LdMetRS: 2.466%; Mtb heat-shock: 11.2%.
With CC1CCCN(C(=O)NCCCn2cncn2)C1 (stereo not drawn) the screen gave LdMetRS: 20.77%; Mtb heat-shock: -17.14%.
With Cc1nc2cc(F)cc(C(=O)N3CCN(CC(C)O)CC3)c2nc1C (stereo not drawn) the screen gave LdMetRS: 14.29%; Mtb heat-shock: -2.639%.
With CCN(C(=O)c1ccc2nnc(C3CCN(C)C3)n2c1)C(C)C.O=C(O)C(F)(F)F (stereo not drawn) the screen gave Mtb heat-shock: 0.8704%.
With Cn1cc(C(=O)Nc2ccc(CN3CCOCC3)cn2)cn1 the screen gave LdMetRS: 13.86%; Mtb heat-shock: 3.254%.
With CNCc1cc(F)ccc1Oc1ccc(Cl)cc1 the screen gave LdMetRS: 6.757%; Mtb heat-shock: -7.892%.

Once more, the final 5:

* CC1CCCN(C(=O)NCCCn2cncn2)C1 (stereo not drawn) | LdMetRS: 20.77%; Mtb heat-shock: -17.14%
* Cc1nc2cc(F)cc(C(=O)N3CCN(CC(C)O)CC3)c2nc1C (stereo not drawn) | LdMetRS: 14.29%; Mtb heat-shock: -2.639%
* CCN(C(=O)c1ccc2nnc(C3CCN(C)C3)n2c1)C(C)C.O=C(O)C(F)(F)F (stereo not drawn) | Mtb heat-shock: 0.8704%
* Cn1cc(C(=O)Nc2ccc(CN3CCOCC3)cn2)cn1 | LdMetRS: 13.86%; Mtb heat-shock: 3.254%
* CNCc1cc(F)ccc1Oc1ccc(Cl)cc1 | LdMetRS: 6.757%; Mtb heat-shock: -7.892%

Source: ChEMBL document CHEMBL3988442, “University of Dundee, Small-Polar-MMV Screening Library” (2021).